Values from PubChem BioAssay AID1259254 (NCATS, 2017).
The deposit covers about 59,000 reagents; shown is a part drawn at random. Of all reagents, about 1,550 (2.6%) are marked active. 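G2 share is only a proxy for re-replication; each gene was hit by three separate siRNAs, and active genes were retested.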 Unmarked entries are inactive. The numbers tell different reagents against one gene apart. Not all columns of the deposit are shown. The record does not give: the amount of reagent.

- Assay: 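Genome-wide screen for genes that prevent DNA re-replication in cancer cells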 (primary screen)
- Cells: human HCT116 colorectal cancer cells
- Knock-down reagent: single siRNA against human genes
- Timing: 3 days
- Detection: 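Nuclei stained with Hoechst and imaged; cell-cycle phase assigned by DNA content; G2 share scaled per plate, non-targeting siRNA 0%, GMNN siRNA 100%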
- Direction: G2 robust z-score: higher = more G2 cells, more excess DNA replication
- Hit rule: 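Active siRNAs have a G2 robust z of 5 or more median absolute deviations over the median, which in these data means about 38% or higher of GMNN control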

RBM38 (GeneID 55544) #1 showed G2 robust z-score -0.657.
With knock-down of RBM38 (GeneID 55544) #2, the record shows G2 robust z-score -0.286.
Knock-down of RBM38 (GeneID 55544) #3 gave: G2 robust z-score 1.34.
With knock-down of METTL5 (GeneID 29081) #1, the record shows G2 robust z-score -1.08.
METTL5 (GeneID 29081) #2 showed G2 robust z-score 1.31.
Silencing of METTL5 (GeneID 29081) #3 came out at: G2 robust z-score -0.654.
DPY19L4 (GeneID 286148) #1 scored G2 robust z-score 1.77.
DPY19L4 (GeneID 286148) #2 gave G2 robust z-score -0.746.
DPY19L4 (GeneID 286148) #3 gave G2 robust z-score 1.47.
With knock-down of ANPEP (GeneID 290) #1 the results were G2 robust z-score 0.252.
Against ANPEP (GeneID 290) #2, the entry reads G2 robust z-score -0.674.
Against ANPEP (GeneID 290) #3 the deposit lists G2 robust z-score -0.205.
Knock-down of C5orf22 (GeneID 55322) #1 resulted in: G2 robust z-score -0.59.
For C5orf22 (GeneID 55322) #2, the entry reads G2 robust z-score 3.69.
C5orf22 (GeneID 55322) #3 showed G2 robust z-score -0.146.
PIGR (GeneID 5284) #1 showed G2 robust z-score -0.239.
Silencing of PIGR (GeneID 5284) #2 gave: G2 robust z-score -0.481.
After knock-down of PIGR (GeneID 5284) #3, the screen gave G2 robust z-score -0.495.
